# From the supplement of paper PMC8728848
# Some of the results follow.
# Legend:
# Test in all cases: glycan array binding signal (z-score within array); higher = stronger binding
# Conditions in all cases: glycan notation: IUPAC condensed, linker removed
# [1] = molecular target: Neu5Ac(a2-6)GlcNAc(b1-4)GlcNAc
# Outline: (§1)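 Glycan array binding is given as a within-array Z-score, which can be read as non-binding when negative. The arrays, 3228 of them, came from the Consortium for Functional Glycomics database and were retained only where the protein sequence was available. Z-scores were averaged across arrays of the same protein sequence at different concentrations or buffers and across linkers.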
# [2] = molecular target: Neu5Ac(a2-6)GlcNAc(b1-4)GlcNAc(b1-4)GlcNAc
# Outline: as §1
# Neu5Ac(a2-8)Neu5Ac = molecular target: Neu5Ac(a2-8)Neu5Ac
# Outline: as §1
# [3] = molecular target: Neu5Ac(a2-8)Neu5Ac(a2-3)Gal(b1-3)GalNAc(b1-4)[Neu5Ac(a2-3)]Gal(b1-4)Glc
# Outline: as §1
# [4] = molecular target: Neu5Ac(a2-8)Neu5Ac(a2-3)Gal(b1-3)GalNAc(b1-4)[Neu5Ac(a2-8)Neu5Ac(a2-3)]Gal(b1-4)Glc
# Outline: as §1
# [5] = molecular target: Neu5Ac(a2-8)Neu5Ac(a2-3)Gal(b1-4)Glc
# Outline: as §1
# [6] = molecular target: Neu5Ac(a2-8)Neu5Ac(a2-3)Gal(b1-4)GlcNAc
# Outline: as §1
# [7] = molecular target: Neu5Ac(a2-8)Neu5Ac(a2-3)[Gal(b1-3)GalNAc(b1-4)]Gal(b1-4)Glc
# Outline: as §1
# [8] = molecular target: Neu5Ac(a2-8)Neu5Ac(a2-3)[GalNAc(b1-4)]Gal(b1-4)Glc
# Outline: as §1
# [9] = molecular target: Neu5Ac(a2-8)Neu5Ac(a2-8)Neu5Ac
# Outline: as §1
# [10] = molecular target: Neu5Ac(a2-8)Neu5Ac(a2-8)Neu5Ac(a2-3)Gal(b1-4)Glc
# Outline: as §1
# [11] = molecular target: Neu5Ac(a2-8)Neu5Ac(a2-8)Neu5Ac(a2-3)[Gal(b1-3)GalNAc(b1-4)]Gal(b1-4)Glc
# Outline: as §1
# [12] = molecular target: Neu5Ac(a2-8)Neu5Ac(a2-8)Neu5Ac(a2-3)[GalNAc(b1-4)]Gal(b1-4)Glc
# Outline: as §1
# [13] = molecular target: Neu5Ac(a2-8)Neu5Ac(a2-8)Neu5Ac(a2-8)Neu5Ac(a2-3)[GalNAc(b1-4)]Gal(b1-4)Glc
# Outline: as §1
# [14] = molecular target: Neu5Ac(a2-8)Neu5Gc(a2-3)Gal(b1-4)GlcNAc
# Outline: as §1
# [15] = molecular target: Neu5Ac(b2-6)Gal(b1-4)GlcNAc
# Outline: as §1
# Neu5Ac(b2-6)GalNAc = molecular target: Neu5Ac(b2-6)GalNAc
# Outline: as §1
# [16] = molecular target: Neu5Ac9Ac(a2-3)Gal(b1-3)GlcNAc
# Outline: as §1
# [17] = molecular target: Neu5Ac9Ac(a2-3)Gal(b1-4)GlcNAc
# Outline: as §1
# [18] = molecular target: Neu5Ac9Ac(a2-6)Gal(b1-4)GlcNAc
# Outline: as §1
# [19] = molecular target: Neu5Gc(a2-3)Gal(b1-3)GlcNAc
# Outline: as §1
# [20] = molecular target: Neu5Gc(a2-3)Gal(b1-3)[Fuc(a1-4)]GlcNAc
# Outline: as §1
# Neu5Gc(a2-3)Gal(b1-4)Glc = molecular target: Neu5Gc(a2-3)Gal(b1-4)Glc
# Outline: as §1
# [21] = molecular target: Neu5Gc(a2-3)Gal(b1-4)GlcNAc
# Outline: as §1
# [22] = molecular target: Neu5Gc(a2-3)Gal(b1-4)GlcNAc(b1-3)Gal(b1-4)GlcNAc(b1-2)Man(a1-3)[Neu5Gc(a2-3)Gal(b1-4)GlcNAc(b1-3)Gal(b1-4)GlcNAc(b1-2)Man(a1-6)]Man(b1-4)GlcNAc(b1-4)GlcNAc
# Outline: as §1
# [23] = molecular target: Neu5Gc(a2-3)Gal(b1-4)[Fuc(a1-3)]GlcNAc
# Outline: as §1
# [24] = molecular target: Neu5Gc(a2-6)Gal(b1-4)GlcNAc
# Outline: as §1
# Neu5Gc(a2-6)GalNAc = molecular target: Neu5Gc(a2-6)GalNAc
# Outline: as §1
# [25] = molecular target: Neu5Gc(a2-8)Neu5Ac(a2-3)Gal(b1-4)GlcNAc
# Outline: as §1
# [26] = molecular target: Neu5Gc(a2-8)Neu5Gc(a2-3)Gal(b1-4)GlcNAc
# Outline: as §1
# [27] = molecular target: Neu5Gc(a2-8)Neu5Gc(a2-3)Gal(b1-4)GlcNAc(b1-3)Gal(b1-4)GlcNAc
# Outline: as §1
# [28] = molecular target: Neu5Gc(a2-8)Neu5Gc(a2-6)Gal(b1-4)GlcNAc
# Outline: as §1
# [29] = molecular target: Neu5Gc(b2-6)Gal(b1-4)GlcNAc
# Outline: as §1
binder,measurement,setting,value
SP15308C-bot-338-23-338 (Bacteroides ovatus) (protein) DEWTDEQFKQLISFKTQPGGWGVTDVHVRYANSAKYTYNLPVLVSGSTDNTDDRLVSFSLRDDTLDILNFEKFGNRPELYFRELPQKYYSFPKELTIPAGQSHALLPIEFSLDGLDDSQKWALPLKVCEDANGTYAVNPRKYYRTAVLRPILFNEFSGRFSGSSLLGTMAGESDIKFSSTEIKLNVVTDSIVFFYAGQRTEDYEDRINYKVFLQFTGDKVDSKKDLYKMKIWAENEKLKFNSYSTPTYKVSSEMDATKTYLKHTYIVISDIDFDFVDYTSVPNYEIEYNMKGGLSVSRDLDTRKPDEDQGSDSKWW,glycan array binding signal (z-score),[1],0.274
same,glycan array binding signal (z-score),[2],-0.236
same,glycan array binding signal (z-score),Neu5Ac(a2-8)Neu5Ac,-0.476
same,glycan array binding signal (z-score),[3],-0.324
same,glycan array binding signal (z-score),[4],0.574
same,glycan array binding signal (z-score),[5],-0.032
same,glycan array binding signal (z-score),[6],-0.606
same,glycan array binding signal (z-score),[7],-0.637
same,glycan array binding signal (z-score),[8],-0.312
same,glycan array binding signal (z-score),[9],-0.17
same,glycan array binding signal (z-score),[10],0.013
same,glycan array binding signal (z-score),[11],-0.219
same,glycan array binding signal (z-score),[12],-0.598
same,glycan array binding signal (z-score),[13],0.002
same,glycan array binding signal (z-score),[14],-0.236
same,glycan array binding signal (z-score),[15],-0.439
same,glycan array binding signal (z-score),Neu5Ac(b2-6)GalNAc,-0.832
same,glycan array binding signal (z-score),[16],0.029
same,glycan array binding signal (z-score),[17],0.148
same,glycan array binding signal (z-score),[18],-0.466
same,glycan array binding signal (z-score),[19],-0.389
same,glycan array binding signal (z-score),[20],0.492
same,glycan array binding signal (z-score),Neu5Gc(a2-3)Gal(b1-4)Glc,-0.607
same,glycan array binding signal (z-score),[21],-0.751
same,glycan array binding signal (z-score),[22],-0.584
same,glycan array binding signal (z-score),[23],-0.738
same,glycan array binding signal (z-score),[24],-0.639
same,glycan array binding signal (z-score),Neu5Gc(a2-6)GalNAc,-0.421
same,glycan array binding signal (z-score),[25],0.418
same,glycan array binding signal (z-score),[26],-0.714
same,glycan array binding signal (z-score),[27],-0.053
same,glycan array binding signal (z-score),[28],-0.343
same,glycan array binding signal (z-score),[29],0.812

# A portion from the list above, for reference:
binder,measurement,setting,value
SP15308C-bot-338-23-338 (Bacteroides ovatus) (protein) DEWTDEQFKQLISFKTQPGGWGVTDVHVRYANSAKYTYNLPVLVSGSTDNTDDRLVSFSLRDDTLDILNFEKFGNRPELYFRELPQKYYSFPKELTIPAGQSHALLPIEFSLDGLDDSQKWALPLKVCEDANGTYAVNPRKYYRTAVLRPILFNEFSGRFSGSSLLGTMAGESDIKFSSTEIKLNVVTDSIVFFYAGQRTEDYEDRINYKVFLQFTGDKVDSKKDLYKMKIWAENEKLKFNSYSTPTYKVSSEMDATKTYLKHTYIVISDIDFDFVDYTSVPNYEIEYNMKGGLSVSRDLDTRKPDEDQGSDSKWW,glycan array binding signal (z-score),[1],0.274
same,glycan array binding signal (z-score),[2],-0.236
same,glycan array binding signal (z-score),Neu5Ac(a2-8)Neu5Ac,-0.476
